HELM strings list residues between dots; [ac] is acetyl, [am] amide, other brackets name non-standard units.

A short description of this data set: general procedure: Fmoc solid-phase peptide synthesis; Chlorotrityl (CTC) resin, 1.1 mmol/g; HBTU/DIPEA. The settings on record: conjugation step.
“PEPTIDE1{[capI-7].[bAla].[Sar].[Sar].[Sar].[Sar].[Sar].[Sar].[Sar].[Sar].[Sar].[Sar].A.C.[dA].N.E.[1Nal].[dA].C.E.D.F.Y.D.[tBuGly].C.[am]}|CHEM1{[TBMB]}$PEPTIDE1,CHEM1,14:R3-1:R1|PEPTIDE1,CHEM1,20:R3-1:R2|PEPTIDE1,CHEM1,27:R3-1:R3$$$V2.0”: the conjugation yield turned out to be 40.1% and the “final purity (method not given)” value worked out at 97.47%.
Take “PEPTIDE1{[capI-17].[bAla].[Sar].[Sar].[Sar].[Sar].[Sar].[Sar].[Sar].[Sar].[Sar].[Sar].A.C.[dA].N.E.[1Nal].[dA].C.E.D.F.Y.D.[tBuGly].C.[am]}|CHEM1{[TBMB]}$PEPTIDE1,CHEM1,14:R3-1:R1|PEPTIDE1,CHEM1,20:R3-1:R2|PEPTIDE1,CHEM1,27:R3-1:R3$$$V2.0”: the conjugation yield is 30.9% and the “final purity (method not given)” value is 97.2%.
For the substance “PEPTIDE1{[capI-23].[bAla].[Sar].[Sar].[Sar].[Sar].[Sar].[Sar].[Sar].[Sar].[Sar].[Sar].A.C.[dA].N.E.[1Nal].[dA].C.E.D.F.Y.D.[tBuGly].C.[am]}|CHEM1{[TBMB]}$PEPTIDE1,CHEM1,14:R3-1:R1|PEPTIDE1,CHEM1,20:R3-1:R2|PEPTIDE1,CHEM1,27:R3-1:R3$$$V2.0”, the conjugation yield is given as 48.52% yield and the “final purity (method not given)” value stood at 93.76% purity.
As to “PEPTIDE1{[capI-24].[bAla].[Sar].[Sar].[Sar].[Sar].[Sar].[Sar].[Sar].[Sar].[Sar].[Sar].A.C.[dA].N.E.[1Nal].[dA].C.E.D.F.Y.D.[tBuGly].C.[am]}|CHEM1{[TBMB]}$PEPTIDE1,CHEM1,14:R3-1:R1|PEPTIDE1,CHEM1,20:R3-1:R2|PEPTIDE1,CHEM1,27:R3-1:R3$$$V2.0”, the conjugation yield worked out at 24.75% yield and the “final purity (method not given)” value came out at 95.2% purity.
The matching figures for “PEPTIDE1{[capI-25].[bAla].[Sar].[Sar].[Sar].[Sar].[Sar].[Sar].[Sar].[Sar].[Sar].[Sar].A.C.[dA].N.E.[1Nal].[dA].C.E.D.F.Y.D.[tBuGly].C.[am]}|CHEM1{[TBMB]}$PEPTIDE1,CHEM1,14:R3-1:R1|PEPTIDE1,CHEM1,20:R3-1:R2|PEPTIDE1,CHEM1,27:R3-1:R3$$$V2.0”: 30.43% and 95.3%.
In the case of “PEPTIDE1{[capI-26].[bAla].[Sar].[Sar].[Sar].[Sar].[Sar].[Sar].[Sar].[Sar].[Sar].[Sar].A.C.[dA].N.E.[1Nal].[dA].C.E.D.F.Y.D.[tBuGly].C.[am]}|CHEM1{[TBMB]}$PEPTIDE1,CHEM1,14:R3-1:R1|PEPTIDE1,CHEM1,20:R3-1:R2|PEPTIDE1,CHEM1,27:R3-1:R3$$$V2.0”, the conjugation yield is given as 38.9% yield and the “final purity (method not given)” value is 94.0% purity.
The matching figures for “PEPTIDE1{[capI-27].[bAla].[Sar].[Sar].[Sar].[Sar].[Sar].[Sar].[Sar].[Sar].[Sar].[Sar].A.C.[dA].N.E.[1Nal].[dA].C.E.D.F.Y.D.[tBuGly].C.[am]}|CHEM1{[TBMB]}$PEPTIDE1,CHEM1,14:R3-1:R1|PEPTIDE1,CHEM1,20:R3-1:R2|PEPTIDE1,CHEM1,27:R3-1:R3$$$V2.0”: 64.82% and 95.6%.
Consider “PEPTIDE1{[capI-28].[bAla].[Sar].[Sar].[Sar].[Sar].[Sar].[Sar].[Sar].[Sar].[Sar].[Sar].A.C.[dA].N.E.[1Nal].[dA].C.E.D.F.Y.D.[tBuGly].C.[am]}|CHEM1{[TBMB]}$PEPTIDE1,CHEM1,14:R3-1:R1|PEPTIDE1,CHEM1,20:R3-1:R2|PEPTIDE1,CHEM1,27:R3-1:R3$$$V2.0”, for which the conjugation yield is 13.11% and the “final purity (method not given)” value amounted to 98.23%.
The matching figures for “PEPTIDE1{[capI-29].[bAla].[Sar].[Sar].[Sar].[Sar].[Sar].[Sar].[Sar].[Sar].[Sar].[Sar].A.C.[dA].N.E.[1Nal].[dA].C.E.D.F.Y.D.[tBuGly].C.[am]}|CHEM1{[TBMB]}$PEPTIDE1,CHEM1,14:R3-1:R1|PEPTIDE1,CHEM1,20:R3-1:R2|PEPTIDE1,CHEM1,27:R3-1:R3$$$V2.0”: 22.98% and 86.1%.
The matching figures for “PEPTIDE1{[capI-30].[bAla].[Sar].[Sar].[Sar].[Sar].[Sar].[Sar].[Sar].[Sar].[Sar].[Sar].A.C.[dA].N.E.[1Nal].[dA].C.E.D.F.Y.D.[tBuGly].C.[am]}|CHEM1{[TBMB]}$PEPTIDE1,CHEM1,14:R3-1:R1|PEPTIDE1,CHEM1,20:R3-1:R2|PEPTIDE1,CHEM1,27:R3-1:R3$$$V2.0”: 13.67% and 97.0%.
The matching figures for “PEPTIDE1{[capI-31].[bAla].[Sar].[Sar].[Sar].[Sar].[Sar].[Sar].[Sar].[Sar].[Sar].[Sar].A.C.[dA].N.E.[1Nal].[dA].C.E.D.F.Y.D.[tBuGly].C.[am]}|CHEM1{[TBMB]}$PEPTIDE1,CHEM1,14:R3-1:R1|PEPTIDE1,CHEM1,20:R3-1:R2|PEPTIDE1,CHEM1,27:R3-1:R3$$$V2.0”: 24.41% and 97.3%.
As for “PEPTIDE1{[capI-32].[bAla].[Sar].[Sar].[Sar].[Sar].[Sar].[Sar].[Sar].[Sar].[Sar].[Sar].A.C.[dA].N.E.[1Nal].[dA].C.E.D.F.Y.D.[tBuGly].C.[am]}|CHEM1{[TBMB]}$PEPTIDE1,CHEM1,14:R3-1:R1|PEPTIDE1,CHEM1,20:R3-1:R2|PEPTIDE1,CHEM1,27:R3-1:R3$$$V2.0”, the conjugation yield turned out to be 10.86% and the “final purity (method not given)” value is reported as 96.6%.
The matching figures for “PEPTIDE1{[capI-33].[bAla].[Sar].[Sar].[Sar].[Sar].[Sar].[Sar].[Sar].[Sar].[Sar].[Sar].A.C.[dA].N.E.[1Nal].[dA].C.E.D.F.Y.D.[tBuGly].C.[am]}|CHEM1{[TBMB]}$PEPTIDE1,CHEM1,14:R3-1:R1|PEPTIDE1,CHEM1,20:R3-1:R2|PEPTIDE1,CHEM1,27:R3-1:R3$$$V2.0”: 26.72% and 95.1%.
